# Assay results: the supplement of paper PMC8728848
# This is one part of the list.
# B1: GS7807F-bth-514-18-514 (Bacteroides thetaiotaomicron) (protein)
# chain: AGSCTGNFEEYNTNQFQIHEADPSTLMKSMIETIVNIQQNDSQMMDQMVGQLGGYLTCANVWSGTNFGTFNQSDAWNAGPWNTNFEKIYGNFFQIQEATNESGHYYAFARMIRAITMLRVADCYGPMPYSQVKKGNFYVAYDTEEQVYKNIMEDFASAANVLYNYYKDTNGNAPLASNDPVFSGNYANWARLANSMRLRVAIRISTAYPEMAKENAEAAASHEAGLIEANNDNAMMDCGSQTNPYQLAAVSWGDLRVNANIVDYMNGYGDPRMSKYFNHSTFTGHTQEYVGMRSGEDGFAKSDVAGYSIPAITGTSKLLVFCAAETAFLRAEGKLKNWSVGNKSAKEYYEEGIKLSMEQYGTTMPDNYLTNTEKPTVSHNNDPRGHAYTISNTVAVAWNDNNEEENLQRIITQKWIANYPLGLEAWAEYRRTGYPELYPCIDNLSPSGVDSKRGMRRLRFPYTEVQNNHSNYQQGVSYLKNGGPDNEATDLSWGKTN
# Legend:
# Assay in all cases: glycan array binding signal (z-score within array); higher = stronger binding
# Conditions in all cases: glycan notation: IUPAC condensed, linker removed
# Fuc(a1-2)Gal = molecular target: Fuc(a1-2)Gal
# Outline: (§1)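 Glycan array data came from 3228 arrays in the Consortium for Functional Glycomics database, and only arrays with an available protein sequence were kept. Glycan names were put into IUPAC-condensed notation, and columns mapping to the same glycan were averaged. The binding signal is a within-array Z-score, averaged across arrays of one protein sequence run at different concentrations or buffers and across linkers. A negative Z-score can be read as non-binding.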
# Fuc(a1-2)Gal(b1-3)GalNAc = molecular target: Fuc(a1-2)Gal(b1-3)GalNAc
# Outline: as §1
# [1] = molecular target: Fuc(a1-2)Gal(b1-3)GalNAc(a1-3)[Fuc(a1-2)]Gal(b1-4)Glc
# Outline: as §1
# [2] = molecular target: Fuc(a1-2)Gal(b1-3)GalNAc(a1-3)[Fuc(a1-2)]Gal(b1-4)GlcNAc
# Outline: as §1
# [3] = molecular target: Fuc(a1-2)Gal(b1-3)GalNAc(b1-3)Gal
# Outline: as §1
# [4] = molecular target: Fuc(a1-2)Gal(b1-3)GalNAc(b1-3)Gal(a1-4)Gal(b1-4)Glc
# Outline: as §1
# [5] = molecular target: Fuc(a1-2)Gal(b1-3)GalNAc(b1-4)[Neu5Ac(a2-3)]Gal(b1-4)Glc
# Outline: as §1
# Fuc(a1-2)Gal(b1-3)GlcNAc = molecular target: Fuc(a1-2)Gal(b1-3)GlcNAc
# Outline: as §1
# [6] = molecular target: Fuc(a1-2)Gal(b1-3)GlcNAc(b1-2)Man(a1-3)[Fuc(a1-2)Gal(b1-3)GlcNAc(b1-2)Man(a1-6)]Man(b1-4)GlcNAc(b1-4)GlcNAc
# Outline: as §1
# [7] = molecular target: Fuc(a1-2)Gal(b1-3)GlcNAc(b1-2)Man(a1-3)[Fuc(a1-2)Gal(b1-3)GlcNAc(b1-2)Man(a1-6)]Man(b1-4)GlcNAc(b1-4)[Fuc(a1-6)]GlcNAc
# Outline: as §1
# [8] = molecular target: Fuc(a1-2)Gal(b1-3)GlcNAc(b1-3)Gal(b1-4)Glc
# Outline: as §1
# [9] = molecular target: Fuc(a1-2)Gal(b1-3)GlcNAc(b1-3)GalNAc
# Outline: as §1
# [10] = molecular target: Fuc(a1-2)Gal(b1-3)GlcNAc(b1-3)[Fuc(a1-2)Gal(b1-3)GlcNAc(b1-6)]GalNAc
# Outline: as §1
# [11] = molecular target: Fuc(a1-2)Gal(b1-3)GlcNAc(b1-3)[Gal(b1-4)GlcNAc(b1-6)]Gal(b1-4)Glc
# Outline: as §1
# [12] = molecular target: Fuc(a1-2)Gal(b1-3)GlcNAc(b1-3)[Neu5Ac(a2-6)Gal(b1-4)GlcNAc(b1-6)]Gal(b1-4)Glc
# Outline: as §1
# [13] = molecular target: Fuc(a1-2)Gal(b1-3)GlcNAc6S
# Outline: as §1
# [14] = molecular target: Fuc(a1-2)Gal(b1-3)[Fuc(a1-4)]GlcNAc
# Outline: as §1
# [15] = molecular target: Fuc(a1-2)Gal(b1-3)[Fuc(a1-4)]GlcNAc(b1-2)Man(a1-3)[Fuc(a1-2)Gal(b1-3)[Fuc(a1-4)]GlcNAc(b1-2)Man(a1-3)]Man(b1-4)GlcNAc(b1-4)GlcNAc
# Outline: as §1
# [16] = molecular target: Fuc(a1-2)Gal(b1-3)[Fuc(a1-4)]GlcNAc(b1-2)Man(a1-3)[Fuc(a1-2)Gal(b1-3)[Fuc(a1-4)]GlcNAc(b1-2)Man(a1-6)]Man(b1-4)GlcNAc(b1-4)[Fuc(a1-6)]GlcNAc(b1-4)[Fuc(a1-6)]GlcNAc
# Outline: as §1
# [17] = molecular target: Fuc(a1-2)Gal(b1-3)[Fuc(a1-4)]GlcNAc(b1-3)[Fuc(a1-3)[Gal(b1-4)]GlcNAc(b1-6)]Gal(b1-4)Glc
# Outline: as §1
# [18] = molecular target: Fuc(a1-2)Gal(b1-3)[Fuc(a1-4)]GlcNAc(b1-3)[Gal(b1-4)GlcNAc(b1-6)]Gal(b1-4)Glc
# Outline: as §1
# Fuc(a1-2)Gal(b1-4)Glc = molecular target: Fuc(a1-2)Gal(b1-4)Glc
# Outline: as §1
# Fuc(a1-2)Gal(b1-4)Glc6S = molecular target: Fuc(a1-2)Gal(b1-4)Glc6S
# Outline: as §1
# Fuc(a1-2)Gal(b1-4)GlcNAc = molecular target: Fuc(a1-2)Gal(b1-4)GlcNAc
# Outline: as §1
# [19] = molecular target: Fuc(a1-2)Gal(b1-4)GlcNAc(b1-2)Man
# Outline: as §1
# [20] = molecular target: Fuc(a1-2)Gal(b1-4)GlcNAc(b1-2)Man(a1-3)[Fuc(a1-2)Gal(b1-4)GlcNAc(b1-2)Man(a1-6)]Man(b1-4)GlcNAc(b1-4)GlcNAc
# Outline: as §1
# [21] = molecular target: Fuc(a1-2)Gal(b1-4)GlcNAc(b1-2)Man(a1-3)[Fuc(a1-2)Gal(b1-4)GlcNAc(b1-2)Man(a1-6)]Man(b1-4)GlcNAc(b1-4)[Fuc(a1-6)]GlcNAc
# Outline: as §1
# [22] = molecular target: Fuc(a1-2)Gal(b1-4)GlcNAc(b1-2)[Fuc(a1-2)Gal(b1-4)GlcNAc(b1-4)]Man(a1-3)[Fuc(a1-2)Gal(b1-4)GlcNAc(b1-2)Man(a1-6)]Man(b1-4)GlcNAc(b1-4)GlcNAc
# Outline: as §1
# [23] = molecular target: Fuc(a1-2)Gal(b1-4)GlcNAc(b1-3)Gal(b1-4)GlcNAc
# Outline: as §1
# [24] = molecular target: Fuc(a1-2)Gal(b1-4)GlcNAc(b1-3)Gal(b1-4)GlcNAc(b1-2)Man(a1-3)[Fuc(a1-2)Gal(b1-4)GlcNAc(b1-3)Gal(b1-4)GlcNAc(b1-2)Man(a1-6)]Man(b1-4)GlcNAc(b1-4)GlcNAc
# Outline: as §1
binder,measurement,setting,value
B1,glycan array binding signal (z-score),Fuc(a1-2)Gal,1.05
same,glycan array binding signal (z-score),Fuc(a1-2)Gal(b1-3)GalNAc,-0.828
same,glycan array binding signal (z-score),[1],-0.349
same,glycan array binding signal (z-score),[2],-0.743
same,glycan array binding signal (z-score),[3],0.272
same,glycan array binding signal (z-score),[4],-0.883
same,glycan array binding signal (z-score),[5],-0.618
same,glycan array binding signal (z-score),Fuc(a1-2)Gal(b1-3)GlcNAc,0.051
same,glycan array binding signal (z-score),[6],0.69
same,glycan array binding signal (z-score),[7],-0.236
same,glycan array binding signal (z-score),[8],-0.475
same,glycan array binding signal (z-score),[9],-0.223
same,glycan array binding signal (z-score),[10],0.199
same,glycan array binding signal (z-score),[11],-0.372
same,glycan array binding signal (z-score),[12],-0.461
same,glycan array binding signal (z-score),[13],0.274
same,glycan array binding signal (z-score),[14],-0.815
same,glycan array binding signal (z-score),[15],-0.43
same,glycan array binding signal (z-score),[16],-0.564
same,glycan array binding signal (z-score),[17],-0.825
same,glycan array binding signal (z-score),[18],0.364
same,glycan array binding signal (z-score),Fuc(a1-2)Gal(b1-4)Glc,-0.812
same,glycan array binding signal (z-score),Fuc(a1-2)Gal(b1-4)Glc6S,-0.604
same,glycan array binding signal (z-score),Fuc(a1-2)Gal(b1-4)GlcNAc,-0.792
same,glycan array binding signal (z-score),[19],-0.353
same,glycan array binding signal (z-score),[20],0.988
same,glycan array binding signal (z-score),[21],0.079
same,glycan array binding signal (z-score),[22],-0.747
same,glycan array binding signal (z-score),[23],-0.828
same,glycan array binding signal (z-score),[24],0.8

# For convenience, part of the list above:
binder,measurement,setting,value
B1,glycan array binding signal (z-score),[10],0.199
same,glycan array binding signal (z-score),[11],-0.372
